Results from the supplement of paper PMC12819154, “High-throughput peptide-centric local stability assay extends protein–ligand identification to membrane proteins, tissues and bacteria” (Nature Structural & Molecular Biology, 2025).
Some of the results follow. Most values lie at the level of the controls, where differences are scatter.

Protein sequences, listed by entry. Tags and fused reporters are not part of them. Lines headed by an entry give the natural chain unless they say otherwise; changes in a name come on top.
UniProt Q8TA86: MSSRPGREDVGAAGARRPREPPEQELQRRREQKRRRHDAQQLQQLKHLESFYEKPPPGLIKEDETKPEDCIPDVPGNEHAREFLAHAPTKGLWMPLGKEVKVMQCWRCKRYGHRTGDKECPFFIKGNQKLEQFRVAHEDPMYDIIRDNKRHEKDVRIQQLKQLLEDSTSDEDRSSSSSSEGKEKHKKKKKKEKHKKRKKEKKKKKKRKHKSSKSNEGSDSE
UniProt Q8WUQ7: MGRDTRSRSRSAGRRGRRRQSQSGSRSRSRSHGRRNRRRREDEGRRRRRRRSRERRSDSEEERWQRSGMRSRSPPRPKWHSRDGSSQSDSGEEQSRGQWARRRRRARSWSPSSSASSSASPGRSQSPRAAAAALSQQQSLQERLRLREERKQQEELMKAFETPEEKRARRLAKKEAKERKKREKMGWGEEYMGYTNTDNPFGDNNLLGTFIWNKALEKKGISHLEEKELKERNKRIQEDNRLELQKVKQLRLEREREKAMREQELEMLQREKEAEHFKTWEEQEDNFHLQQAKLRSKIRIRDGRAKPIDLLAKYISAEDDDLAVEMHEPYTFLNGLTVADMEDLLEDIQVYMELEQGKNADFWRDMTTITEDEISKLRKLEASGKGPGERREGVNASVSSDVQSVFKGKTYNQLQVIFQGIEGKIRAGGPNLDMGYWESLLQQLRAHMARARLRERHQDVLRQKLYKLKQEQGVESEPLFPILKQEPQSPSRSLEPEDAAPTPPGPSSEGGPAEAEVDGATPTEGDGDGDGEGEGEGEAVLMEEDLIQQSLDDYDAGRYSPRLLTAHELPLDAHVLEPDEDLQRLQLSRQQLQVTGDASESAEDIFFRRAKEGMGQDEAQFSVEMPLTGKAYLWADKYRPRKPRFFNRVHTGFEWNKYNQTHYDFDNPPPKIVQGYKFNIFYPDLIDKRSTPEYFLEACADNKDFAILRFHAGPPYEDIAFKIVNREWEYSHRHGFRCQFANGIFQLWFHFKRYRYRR
UniProt Q92598: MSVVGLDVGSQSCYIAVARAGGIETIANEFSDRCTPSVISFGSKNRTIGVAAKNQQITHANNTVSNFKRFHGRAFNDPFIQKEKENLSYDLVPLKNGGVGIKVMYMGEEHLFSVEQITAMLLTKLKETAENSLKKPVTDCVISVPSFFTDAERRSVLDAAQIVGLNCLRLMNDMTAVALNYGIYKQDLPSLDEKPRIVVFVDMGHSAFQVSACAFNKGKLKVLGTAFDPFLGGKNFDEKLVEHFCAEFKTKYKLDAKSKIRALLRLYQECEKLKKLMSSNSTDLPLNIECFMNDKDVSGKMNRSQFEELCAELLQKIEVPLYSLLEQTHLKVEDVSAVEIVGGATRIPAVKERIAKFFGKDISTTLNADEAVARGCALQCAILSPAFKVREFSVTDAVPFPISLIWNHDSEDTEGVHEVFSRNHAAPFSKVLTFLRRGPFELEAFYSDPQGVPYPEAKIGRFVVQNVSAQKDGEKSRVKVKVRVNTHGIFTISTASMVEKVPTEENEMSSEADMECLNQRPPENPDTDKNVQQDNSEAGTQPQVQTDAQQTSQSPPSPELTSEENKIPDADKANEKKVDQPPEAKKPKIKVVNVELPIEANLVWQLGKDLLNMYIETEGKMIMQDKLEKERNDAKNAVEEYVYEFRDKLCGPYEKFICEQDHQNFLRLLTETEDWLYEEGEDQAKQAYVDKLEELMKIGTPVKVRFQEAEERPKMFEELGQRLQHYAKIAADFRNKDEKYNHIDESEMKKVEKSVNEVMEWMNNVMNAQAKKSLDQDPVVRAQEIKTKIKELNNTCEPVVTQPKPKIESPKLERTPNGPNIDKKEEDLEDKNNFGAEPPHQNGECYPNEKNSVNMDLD
UniProt Q8TBZ6: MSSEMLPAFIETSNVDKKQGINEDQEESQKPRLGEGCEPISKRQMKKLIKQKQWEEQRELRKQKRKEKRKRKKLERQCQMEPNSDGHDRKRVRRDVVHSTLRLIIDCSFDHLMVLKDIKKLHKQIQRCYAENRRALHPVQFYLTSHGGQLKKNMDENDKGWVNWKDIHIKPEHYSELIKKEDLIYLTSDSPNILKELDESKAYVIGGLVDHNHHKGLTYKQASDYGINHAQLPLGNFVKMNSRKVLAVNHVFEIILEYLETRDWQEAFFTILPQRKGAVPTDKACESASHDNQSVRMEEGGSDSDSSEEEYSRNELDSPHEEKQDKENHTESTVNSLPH
UniProt Q8TBE9: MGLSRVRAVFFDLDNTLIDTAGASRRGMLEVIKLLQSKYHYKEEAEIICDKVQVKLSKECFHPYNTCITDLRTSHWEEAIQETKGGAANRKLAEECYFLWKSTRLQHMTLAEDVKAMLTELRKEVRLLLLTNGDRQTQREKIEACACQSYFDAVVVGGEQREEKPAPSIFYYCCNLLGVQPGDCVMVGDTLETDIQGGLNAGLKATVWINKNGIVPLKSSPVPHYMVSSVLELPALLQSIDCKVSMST
UniProt Q8TCX1: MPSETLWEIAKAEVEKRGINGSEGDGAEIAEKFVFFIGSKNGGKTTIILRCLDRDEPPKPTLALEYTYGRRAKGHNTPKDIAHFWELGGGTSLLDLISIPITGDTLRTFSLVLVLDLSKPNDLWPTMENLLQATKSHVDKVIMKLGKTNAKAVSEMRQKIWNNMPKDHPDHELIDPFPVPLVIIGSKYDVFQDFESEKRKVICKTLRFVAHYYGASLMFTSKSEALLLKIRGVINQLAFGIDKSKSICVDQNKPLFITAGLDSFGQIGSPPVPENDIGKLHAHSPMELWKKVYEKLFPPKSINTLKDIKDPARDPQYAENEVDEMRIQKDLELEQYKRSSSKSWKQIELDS
UniProt Q8TBY9: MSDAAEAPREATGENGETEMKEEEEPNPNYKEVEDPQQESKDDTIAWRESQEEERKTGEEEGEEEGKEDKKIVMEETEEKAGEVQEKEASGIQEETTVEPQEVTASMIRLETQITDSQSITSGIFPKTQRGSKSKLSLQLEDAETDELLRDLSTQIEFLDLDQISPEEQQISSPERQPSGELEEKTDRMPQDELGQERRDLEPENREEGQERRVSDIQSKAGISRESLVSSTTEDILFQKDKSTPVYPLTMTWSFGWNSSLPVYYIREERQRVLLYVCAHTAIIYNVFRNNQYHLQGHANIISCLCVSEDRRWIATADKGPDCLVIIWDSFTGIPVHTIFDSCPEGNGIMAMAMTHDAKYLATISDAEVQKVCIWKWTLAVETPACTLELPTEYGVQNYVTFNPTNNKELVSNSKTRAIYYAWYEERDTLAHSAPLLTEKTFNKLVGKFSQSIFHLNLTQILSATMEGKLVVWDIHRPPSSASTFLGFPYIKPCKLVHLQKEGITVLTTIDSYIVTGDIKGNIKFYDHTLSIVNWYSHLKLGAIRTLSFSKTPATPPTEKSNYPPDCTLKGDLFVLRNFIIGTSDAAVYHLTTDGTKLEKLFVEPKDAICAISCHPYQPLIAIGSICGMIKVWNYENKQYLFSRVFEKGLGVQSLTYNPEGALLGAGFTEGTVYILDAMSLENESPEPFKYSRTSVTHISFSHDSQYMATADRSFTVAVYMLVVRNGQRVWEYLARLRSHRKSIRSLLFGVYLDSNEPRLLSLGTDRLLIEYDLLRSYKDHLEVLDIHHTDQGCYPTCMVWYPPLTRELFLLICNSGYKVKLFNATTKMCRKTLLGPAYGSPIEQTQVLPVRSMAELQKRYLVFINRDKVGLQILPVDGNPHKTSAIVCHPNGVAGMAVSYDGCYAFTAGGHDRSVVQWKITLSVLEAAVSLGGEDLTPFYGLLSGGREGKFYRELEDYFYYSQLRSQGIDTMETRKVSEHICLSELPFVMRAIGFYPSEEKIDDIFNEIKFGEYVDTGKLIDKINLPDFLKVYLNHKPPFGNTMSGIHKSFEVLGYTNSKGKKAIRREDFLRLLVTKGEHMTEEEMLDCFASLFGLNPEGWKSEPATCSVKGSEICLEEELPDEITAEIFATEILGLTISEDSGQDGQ
UniProt Q8TDY2, whole entry: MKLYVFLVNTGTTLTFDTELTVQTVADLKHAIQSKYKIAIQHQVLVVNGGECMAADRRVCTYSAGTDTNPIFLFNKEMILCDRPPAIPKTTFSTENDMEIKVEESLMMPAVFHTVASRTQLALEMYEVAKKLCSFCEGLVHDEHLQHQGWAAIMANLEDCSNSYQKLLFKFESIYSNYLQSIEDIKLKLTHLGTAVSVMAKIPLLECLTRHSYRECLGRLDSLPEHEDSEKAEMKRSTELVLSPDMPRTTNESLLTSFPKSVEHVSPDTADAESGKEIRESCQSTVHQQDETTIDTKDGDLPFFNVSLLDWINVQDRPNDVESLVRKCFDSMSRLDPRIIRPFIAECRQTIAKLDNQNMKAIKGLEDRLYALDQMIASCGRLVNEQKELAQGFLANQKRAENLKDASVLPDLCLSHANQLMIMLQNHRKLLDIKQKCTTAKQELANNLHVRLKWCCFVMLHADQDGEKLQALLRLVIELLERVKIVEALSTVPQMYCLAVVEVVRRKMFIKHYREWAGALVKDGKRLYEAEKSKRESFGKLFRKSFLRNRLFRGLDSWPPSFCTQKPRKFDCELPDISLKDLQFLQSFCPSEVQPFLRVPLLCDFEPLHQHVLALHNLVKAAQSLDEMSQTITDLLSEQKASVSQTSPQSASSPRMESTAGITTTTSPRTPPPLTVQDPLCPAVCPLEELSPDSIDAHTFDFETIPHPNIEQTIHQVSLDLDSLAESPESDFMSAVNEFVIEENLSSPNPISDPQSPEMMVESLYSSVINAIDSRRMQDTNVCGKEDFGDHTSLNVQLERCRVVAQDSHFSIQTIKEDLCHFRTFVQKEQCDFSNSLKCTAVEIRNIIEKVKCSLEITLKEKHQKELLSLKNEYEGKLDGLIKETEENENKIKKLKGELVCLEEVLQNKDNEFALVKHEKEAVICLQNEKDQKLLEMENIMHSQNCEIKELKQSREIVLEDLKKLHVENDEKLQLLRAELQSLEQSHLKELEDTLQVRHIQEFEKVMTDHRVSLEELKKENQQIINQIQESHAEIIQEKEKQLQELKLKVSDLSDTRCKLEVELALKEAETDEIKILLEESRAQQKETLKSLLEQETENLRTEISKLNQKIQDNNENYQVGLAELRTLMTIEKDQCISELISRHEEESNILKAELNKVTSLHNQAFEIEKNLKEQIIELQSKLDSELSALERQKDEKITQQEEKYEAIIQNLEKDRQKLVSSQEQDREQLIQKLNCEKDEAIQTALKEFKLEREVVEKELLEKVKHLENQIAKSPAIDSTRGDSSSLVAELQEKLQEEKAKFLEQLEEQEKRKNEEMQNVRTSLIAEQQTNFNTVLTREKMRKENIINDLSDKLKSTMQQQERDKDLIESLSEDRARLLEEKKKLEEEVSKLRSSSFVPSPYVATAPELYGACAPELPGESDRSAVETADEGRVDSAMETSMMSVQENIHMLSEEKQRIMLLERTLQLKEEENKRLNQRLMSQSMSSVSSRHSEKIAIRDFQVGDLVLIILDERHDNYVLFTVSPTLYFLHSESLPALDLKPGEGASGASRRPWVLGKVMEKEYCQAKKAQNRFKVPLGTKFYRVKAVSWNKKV
UniProt Q8WTW3: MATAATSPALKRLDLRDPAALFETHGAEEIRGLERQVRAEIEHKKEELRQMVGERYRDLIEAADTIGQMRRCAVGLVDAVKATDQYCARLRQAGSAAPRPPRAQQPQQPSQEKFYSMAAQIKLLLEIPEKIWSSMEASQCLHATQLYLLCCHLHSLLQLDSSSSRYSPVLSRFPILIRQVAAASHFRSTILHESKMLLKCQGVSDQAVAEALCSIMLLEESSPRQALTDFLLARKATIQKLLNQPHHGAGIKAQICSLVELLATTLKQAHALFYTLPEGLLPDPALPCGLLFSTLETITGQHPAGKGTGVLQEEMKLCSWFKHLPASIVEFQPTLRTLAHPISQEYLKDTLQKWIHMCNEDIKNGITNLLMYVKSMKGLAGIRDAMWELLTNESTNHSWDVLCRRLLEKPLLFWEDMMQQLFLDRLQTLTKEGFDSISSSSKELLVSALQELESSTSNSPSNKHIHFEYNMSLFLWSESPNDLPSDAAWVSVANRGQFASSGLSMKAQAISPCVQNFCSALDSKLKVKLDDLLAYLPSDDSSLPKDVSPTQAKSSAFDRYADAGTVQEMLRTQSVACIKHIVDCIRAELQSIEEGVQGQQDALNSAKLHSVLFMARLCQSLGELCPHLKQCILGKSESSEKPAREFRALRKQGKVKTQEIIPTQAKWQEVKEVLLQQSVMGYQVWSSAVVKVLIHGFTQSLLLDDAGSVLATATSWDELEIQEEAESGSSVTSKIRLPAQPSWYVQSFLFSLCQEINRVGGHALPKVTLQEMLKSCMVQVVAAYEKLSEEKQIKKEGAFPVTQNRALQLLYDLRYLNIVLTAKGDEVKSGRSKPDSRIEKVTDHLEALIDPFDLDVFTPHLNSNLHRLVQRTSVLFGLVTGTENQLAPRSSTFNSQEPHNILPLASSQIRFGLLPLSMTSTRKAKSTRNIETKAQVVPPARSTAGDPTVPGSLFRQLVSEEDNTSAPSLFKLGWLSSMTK

What follows are targets tested with Cc1nc(Nc2ncc(C(=O)Nc3c(C)cccc3Cl)s2)cc(N2CCN(CCO)CC2)n1 [dasatinib] (assay: log2 fold change of tryptic peptide abundance, ligand vs vehicle (limited proteolysis) (log2 ratio); higher = more trypsin-susceptible (destabilized)). Settings: ligand concentration: 5 uM; sample: K562 cleared lysate.

Target	log2 fold change
ATXN2L (peptide sequence: MYPPRSPK, peptide start residue: 444) (UniProt Q8WWM7)	-0.198
NPLOC4 (peptide sequence: KTGNQHFGYLYGR, peptide start residue: 243) (UniProt Q8TAT6)	-0.268
UniProt Q8WX92 (peptide sequence: KLEDLLEK, peptide start residue: 92)	-0.495
RP9 (peptide sequence: SSRPGREDVGAAGAR, peptide start residue: 2) (UniProt Q8TA86)	0.256
UniProt Q8WUQ7 (peptide sequence: ERHQDVLR, peptide start residue: 455)	0.372
HSPH1 (peptide sequence: KPVTDCVISVPSFFTDAERR, peptide start residue: 135) (UniProt Q92598)	0.194
UniProt Q8TCP9 (peptide sequence: VALSSCVPDWK, peptide start residue: 552)	-0.44
ARAP3 (peptide sequence: LRPGEHFVEDVTDTLKR, peptide start residue: 966) (UniProt Q8WWN8)	-0.161
PSMA8 (peptide sequence: LYQTDPSGTYHAWK, peptide start residue: 144) (UniProt Q8TAA3)	0.0212
ZFAND2B (peptide sequence: SSKPSNCSLC, peptide start residue: 248) (UniProt Q8WV99)	-0.414
UniProt Q8TBZ6 (peptide sequence: NELDSPHEEK, peptide start residue: 314)	0.258
FBXO30 (peptide sequence: KSYENLSR, peptide start residue: 105) (UniProt Q8TB52)	0.434
UniProt Q8WV37 (peptide sequence: EKPYECNEHSK, peptide start residue: 200)	0.392
RAB3IL1 (peptide sequence: YIQQGLVR, peptide start residue: 346) (UniProt Q8TBN0)	-0.124
NANP (peptide sequence: LSKECFHPYNTCITDLR, peptide start residue: 56) (UniProt Q8TBE9)	-0.36
UniProt Q8TAC2 (peptide sequence: APEALGDEDGVR, peptide start residue: 145)	0.182
PPP1R35 (peptide sequence: LQLRPRPSEDTFLMHR, peptide start residue: 231) (UniProt Q8TAP8)	-0.293
DYNC2LI1 (peptide sequence: GVINQLAFGIDKSK, peptide start residue: 232) (UniProt Q8TCX1)	0.356
ANKRD49 (peptide sequence: DEDEYTPLHR, peptide start residue: 105) (UniProt Q8WVL7)	0.208

As a short view, some entries already given:
Target	log2 fold change
FBXO30 (peptide sequence: KSYENLSR, peptide start residue: 105) (UniProt Q8TB52)	0.434
UniProt Q8WV37 (peptide sequence: EKPYECNEHSK, peptide start residue: 200)	0.392

(listing goes on)

Target	log2 fold change
WDR66 (peptide sequence: YLVFINR, peptide start residue: 861) (UniProt Q8TBY9)	-0.0458
PSPC1 (peptide sequence: GFVEFAAKPPARK, peptide start residue: 199) (UniProt Q8WXF1)	0.162
SNX33 (peptide sequence: YKHFDWLYNR, peptide start residue: 267) (UniProt Q8WV41)	0.137
LNX1 (peptide sequence: HGQLEENDRVLAINGHDLR, peptide start residue: 420) (UniProt Q8TBB1)	0.75
WDR48 (peptide sequence: FNKIPFYLQPHASSGAK, peptide start residue: 562) (UniProt Q8TAF3)	0.165
SLC20A1 (peptide sequence: LGDLEEAPER, peptide start residue: 321) (UniProt Q8WUM9)	0.381
UniProt Q8TF76 (peptide sequence: DRPSLTVTPK, peptide start residue: 90)	-0.231
PCNP (peptide sequence: RSAEEEAADLPTKPTK, peptide start residue: 52) (UniProt Q8WW12)	0.0721
RUFY2 (peptide sequence: QLNSTVSSLHSR, peptide start residue: 215) (UniProt Q8WXA3)	0.309
RB1CC1 (peptide sequence: LDSLPEHEDSEKAEMK, peptide start residue: 220) (UniProt Q8TDY2)	-0.227
NSUN6 (peptide sequence: VFLGNGISELSR, peptide start residue: 170) (UniProt Q8TEA1)	0.0948
FAM76A (peptide sequence: AALYACTKCHQR, peptide start residue: 2) (UniProt Q8TAV0)	0.525
H1FX (peptide sequence: KKLEGGGER, peptide start residue: 119) (UniProt Q92522)	-0.174
UniProt Q8TC92 (peptide sequence: WQLDAYR, peptide start residue: 423)	0.558
UniProt Q8TD08 (peptide sequence: LCDFGLAR, peptide start residue: 153)	0.0898
FNIP1 (peptide sequence: EDIQNSSK, peptide start residue: 631) (UniProt Q8TF40)	0.295
PSMF1 (peptide sequence: IVSGIITPIHEQWEK, peptide start residue: 134) (UniProt Q92530)	-0.149
COG1 (peptide sequence: DPAALFETHGAEEIR, peptide start residue: 17) (UniProt Q8WTW3)	0.806
